Results as given in PMC6915754, “Protein components of ribonucleoprotein granules from Drosophila germ cells oligomerize and show distinct spatial organization during germline development” (Scientific Reports, 2019).
Results are given in words; binding and its absence hold for the method and conditions named. Tags and fused reporters may be left off the sequences shown.

T1: GFP-Aub (functional and methylated, from fly ovaries) (Drosophila) (UniProt O76922)
T1 sequence (chain, methylated (sDMAs), positions not printed): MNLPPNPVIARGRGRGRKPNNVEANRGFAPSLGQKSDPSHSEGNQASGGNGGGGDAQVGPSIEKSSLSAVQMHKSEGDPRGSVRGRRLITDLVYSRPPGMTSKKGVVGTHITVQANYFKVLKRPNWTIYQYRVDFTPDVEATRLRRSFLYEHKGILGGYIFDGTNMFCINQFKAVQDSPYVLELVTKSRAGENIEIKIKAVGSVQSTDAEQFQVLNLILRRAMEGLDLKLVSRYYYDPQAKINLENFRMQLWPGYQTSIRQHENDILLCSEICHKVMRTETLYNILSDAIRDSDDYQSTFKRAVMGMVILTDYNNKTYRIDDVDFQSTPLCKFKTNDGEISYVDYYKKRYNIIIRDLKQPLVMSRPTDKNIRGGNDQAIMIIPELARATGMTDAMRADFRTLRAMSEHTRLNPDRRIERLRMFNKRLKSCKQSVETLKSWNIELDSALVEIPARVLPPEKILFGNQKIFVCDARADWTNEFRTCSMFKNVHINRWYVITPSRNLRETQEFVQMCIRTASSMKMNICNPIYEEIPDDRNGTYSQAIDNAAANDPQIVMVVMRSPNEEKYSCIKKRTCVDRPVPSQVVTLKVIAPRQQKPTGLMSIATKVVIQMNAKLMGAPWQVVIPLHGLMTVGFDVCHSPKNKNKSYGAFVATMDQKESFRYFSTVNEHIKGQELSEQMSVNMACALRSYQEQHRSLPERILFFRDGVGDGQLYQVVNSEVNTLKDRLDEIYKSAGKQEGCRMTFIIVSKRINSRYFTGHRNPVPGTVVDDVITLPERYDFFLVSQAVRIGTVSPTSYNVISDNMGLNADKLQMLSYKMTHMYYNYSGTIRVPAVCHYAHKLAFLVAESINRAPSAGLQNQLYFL


Target: T1, GFP-Aub (functional and methylated, from fly ovaries) (Drosophila)
Test: pull-down; GFP-Aub from fly ovaries held on anti-GFP agarose beads; partially purified His-SUMO Tud domains added; 50 µl reactions, 4 °C, 30 min, binding buffer PBS + 0.05% IGEPAL CA-630; 4 washes; bound domains detected by anti-His-tag western blot; both purified

Binder	binding
Tud domain 7 (amino acids 1605-1785 of Tudor) (domain or fragment, UniProt P25823 1605-1785) SKQAPAQEDPYKDLDCVVLSHCDNPAQFYVHPIDQLSKLNQLHENLQIVSPSLPQLMNVVNGADCVSMYSVDKCWYRAKIIDAELMVLLFIDYGNTDCVSDATDIKESMWSHIEPFCLPCALPIRPKGTADWVDAANGIFNESYSKVPRLEYLTQGDHYTTSYVNMYIDGEDVAKKLIADG	no binding
Tud domain 5 (amino acids 1153-1328 of Tudor) (domain or fragment, UniProt P25823 1153-1328) VNAKVDCEFVSKEKSNQGSNTSSTCSYTVNIFVNGASLRDMLVKAEFLTEVAPEIRVNLLAGQQIRGKFTSIRDMTSFKVQFDYGNNVNFLCTYDDAKFVKSNPNLARRFKEFYEGKSFALNVKNVCENNIVHLRPVMPLFMEDRRSFICPYPVVLSSFQALVVYTAKPYRVYVQP	no binding

More lines, now with the values ahead:

binding	Binder
no binding	Tud domain 10 (amino acids 2140-2340 of Tudor) (domain or fragment, UniProt P25823 2140-2340) SLKIYEHLQKLVQAELKLIQKRNENSECIISYGNSPKSFYVQMKHNSADLDLIVKTLQSLKKEKLKKLIDPTTNSNGVCYSQEDACYYRCSIKSVLDPSQGFEVFLLDYGNTLVVPEVWQLPQEIEPIPSLALHCQLSKIPMDVSDEKLEEAFAALLEQHFGELYEITTQPNEDETKPLIAELRINYKDFVQELVSTVTGV
no binding	Tud domain 8 (amino acids 1791-1964 of Tudor) (domain or fragment, UniProt P25823 1791-1964) EYLASGCSCYISHVNGICDFFIQLERDSKALELIELYLRKKDTLKPLEGFEKGLIVAALFEDDELWYRAQLQKELPDSRYEVLFIDYGNTSTTSKCLMLSEEIASLPSLSKKCSLQLPDAYISWSPEAEAKFAELTGEGELVFTTQLLKPGQDHVTIDLLLDGENIIDRLLPLC
